PubChem BioAssay AID493246 – Drosophila RNAi Screening Center | 2011
In all, the deposit lists about 21,000 reagents; shown is an unselected part of those with a known target gene and a result. In the full data, 429 (2%) are marked active. 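Values are raw and not normalised between plates; calls rest on per-plate z-scores that were not deposited.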 A number with no mark means an inactive call. Reagents against one gene are numbered here. A plus sign joins genes that one reagent is predicted to hit. Not stated in the record: the amount of reagent, the time to read-out.

Aim: 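Genes fly cells need to grow and stay alive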 (primary screen)
Cells: Drosophila Kc and S2R+ cells
Reagent: long dsRNA against Drosophila genes
Detection: 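Raw, unnormalised count of remaining cells in each well; per-plate z-scores of cell number underlie the calls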
Reading the numbers: Kc cell number and S2R+ cell number: higher = more cells remaining
Call rule: 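Active when the per-plate z-score of cell number is 3 or more in the direction of fewer cells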

The opening 2 entries, ahead of the listing:
{"gene": "Fer1 (48 related 1)", "reagent": 1, "Kc cell number, rep 1": 1.72e6, "Kc cell number, rep 2": 1.85e6, "S2R+ cell number, rep 1": 1.37e6, "S2R+ cell number, rep 2": 1.59e6}
{"gene": "Fer1 (48 related 1)", "reagent": 2, "Kc cell number, rep 1": 1.65e6, "Kc cell number, rep 2": 2.02e6, "S2R+ cell number, rep 1": 1.15e6, "S2R+ cell number, rep 2": 1.20e6}

The listing, repeating the preview:
{"gene": "Fer1 (48 related 1)", "reagent": 1, "Kc cell number, rep 1": 1.72e6, "Kc cell number, rep 2": 1.85e6, "S2R+ cell number, rep 1": 1.37e6, "S2R+ cell number, rep 2": 1.59e6}
{"gene": "Fer1 (48 related 1)", "reagent": 2, "Kc cell number, rep 1": 1.65e6, "Kc cell number, rep 2": 2.02e6, "S2R+ cell number, rep 1": 1.15e6, "S2R+ cell number, rep 2": 1.20e6}
{"gene": "Ptth (Prothoracicotropic hormone)", "reagent": 1, "Kc cell number, rep 1": 1.51e6, "Kc cell number, rep 2": 1.59e6, "S2R+ cell number, rep 1": 1.05e6, "S2R+ cell number, rep 2": 1.12e6}
{"gene": "fz3 (frizzled 3)", "reagent": 1, "Kc cell number, rep 1": 1.47e6, "Kc cell number, rep 2": 1.46e6, "S2R+ cell number, rep 1": 9.90e5, "S2R+ cell number, rep 2": 1.13e6}
{"gene": "kek1 (kekkon 1)", "reagent": 1, "Kc cell number, rep 1": 1.58e6, "Kc cell number, rep 2": 1.65e6, "S2R+ cell number, rep 1": 1.21e6, "S2R+ cell number, rep 2": 1.37e6}
{"gene": "Cln7", "reagent": 1, "Kc cell number, rep 1": 1.34e6, "Kc cell number, rep 2": 1.41e6, "S2R+ cell number, rep 1": 1.30e6, "S2R+ cell number, rep 2": 1.27e6}
{"gene": "CG5973", "reagent": 1, "Kc cell number, rep 1": 1.37e6, "Kc cell number, rep 2": 1.37e6, "S2R+ cell number, rep 1": 6.70e5, "S2R+ cell number, rep 2": 7.59e5}
{"gene": "CG9175", "reagent": 1, "Kc cell number, rep 1": 1.52e6, "Kc cell number, rep 2": 1.62e6, "S2R+ cell number, rep 1": 6.34e5, "S2R+ cell number, rep 2": 6.80e5}
{"gene": "Phyhd1 (Phytanoyl-CoA dioxygenase domain containing 1)", "reagent": 1, "Kc cell number, rep 1": 1.59e6, "Kc cell number, rep 2": 1.75e6, "S2R+ cell number, rep 1": 1.42e6, "S2R+ cell number, rep 2": 1.56e6}
{"gene": "SWIP (Strumpellin and WASH-interacting protein)", "reagent": 1, "Kc cell number, rep 1": 1.46e6, "Kc cell number, rep 2": 1.44e6, "S2R+ cell number, rep 1": 1.15e6, "S2R+ cell number, rep 2": 1.26e6}
{"gene": "frac (faulty attraction)", "reagent": 1, "Kc cell number, rep 1": 1.27e6, "Kc cell number, rep 2": 1.36e6, "S2R+ cell number, rep 1": 1.27e6, "S2R+ cell number, rep 2": 1.19e6}
{"gene": "Zip48C (Zinc/iron regulated transporter-related protein 48C)", "reagent": 1, "Kc cell number, rep 1": 1.41e6, "Kc cell number, rep 2": 1.50e6, "S2R+ cell number, rep 1": 1.01e6, "S2R+ cell number, rep 2": 1.15e6}
{"gene": "mop (myopic)", "reagent": 1, "Kc cell number, rep 1": 1.29e6, "Kc cell number, rep 2": 1.32e6, "S2R+ cell number, rep 1": 1.16e6, "S2R+ cell number, rep 2": 1.21e6}
{"gene": "Gem4b + Gem4c + Glos", "reagent": 1, "Kc cell number, rep 1": 1.55e6, "Kc cell number, rep 2": 1.52e6, "S2R+ cell number, rep 1": 1.07e6, "S2R+ cell number, rep 2": 1.17e6}
{"gene": "Vps28 (Vacuolar protein sorting 28)", "reagent": 1, "Kc cell number, rep 1": 1.20e6, "Kc cell number, rep 2": 1.35e6, "S2R+ cell number, rep 1": 1.03e6, "S2R+ cell number, rep 2": 1.07e6}
{"gene": "CG13578", "reagent": 1, "Kc cell number, rep 1": 1.74e6, "Kc cell number, rep 2": 1.80e6, "S2R+ cell number, rep 1": 1.37e6, "S2R+ cell number, rep 2": 1.42e6}
{"gene": "Opbp (Optix-binding protein)", "reagent": 1, "Kc cell number, rep 1": 1.52e6, "Kc cell number, rep 2": 1.60e6, "S2R+ cell number, rep 1": 1.27e6, "S2R+ cell number, rep 2": 1.39e6}
{"gene": "CG14464", "reagent": 1, "Kc cell number, rep 1": 1.44e6, "Kc cell number, rep 2": 1.33e6, "S2R+ cell number, rep 1": 9.71e5, "S2R+ cell number, rep 2": 1.21e6}
{"gene": "CG13239", "reagent": 1, "Kc cell number, rep 1": 1.48e6, "Kc cell number, rep 2": 1.47e6, "S2R+ cell number, rep 1": 1.28e6, "S2R+ cell number, rep 2": 1.38e6}
{"gene": "CG13029", "reagent": 1, "Kc cell number, rep 1": 1.64e6, "Kc cell number, rep 2": 1.84e6, "S2R+ cell number, rep 1": 1.33e6, "S2R+ cell number, rep 2": 1.53e6}
{"gene": "CG5846", "reagent": 1, "Kc cell number, rep 1": 1.33e6, "Kc cell number, rep 2": 1.39e6, "S2R+ cell number, rep 1": 1.10e6, "S2R+ cell number, rep 2": 1.20e6}
